# Source: PubChem BioAssay AID602313 (National Center for Advancing Translational Sciences (NCATS), 2012)
# Screen size: about 390,000 compounds; about 760 (0.19%) were called active. This list was built around the results that the source calls inconclusive (neither active nor inactive); the mix of calls is not that of the screen. Calls come from the whole dose curve; as a rule, active = well fitted inhibition curve with a large enough effect; inconclusive = small, poorly fitted or top-dose-only effect; inactive = flat fitted curve, though single readings scatter. A potency beside an inconclusive call is a rough fit, not a confirmed value.
# Experiment: qHTS for Inhibitors of Vif-A3F Interactions: qHTS; note: nearly all actives have a fitted effect of over 65% in size
# Settings: HeLa A3F-eYFP + Vif (tagged APOBEC3F with the HIV-1 protein that degrades it), YFP fluorescence increase; series mostly up to 46.1 µM
# Outline: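 HeLa cells stably expressing A3F-eYFP plus Vif, plated and incubated overnight at 37 deg C, then exposed to compounds overnight at 37 deg C. Blocked degradation read as raised yellow fluorescence (Ex 488/Em 500-530).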
# Potency is the fitted concentration of half-maximal effect.
row,Structure (SMILES),Potency
1,COc1ccc(N2CCCC2)c(NC(=O)c2ccc([N+](=O)[O-])o2)c1,"inconclusive: 17.8 µM [inhibitor, partial curve, poor fit]"
2,CCN(CC)c1ccc(/C=N/N=C(N)N)c(O)c1,"inconclusive: 35.5 µM [inhibitor, single point]"
3,CCN(C(=O)c1ccc(S(=O)(=O)N2CCOCC2)cc1)C1CCS(=O)(=O)C1 (stereo not given),"inconclusive: 5.62 µM [inhibitor, single point]"
4,CCC[C@@H](CN1CCC[C@H]1CN1C(N)=NC[C@H]1CC(C)C)N1C[C@@H]([C@H](C)CC)N(CCCC2CCCC2)C1=N,inactive
5,COc1ccc2oc(C(=O)OCC(=O)N3CCCCC3)c(C)c2c1,"inconclusive: 20 µM [inhibitor, single point]"
6,Cc1[nH][nH]c(=O)c1C(c1c(C)[nH][nH]c1=O)c1cn(Cc2cccc3ccccc23)c2ccccc12,"inconclusive: 35.5 µM [inhibitor, single point]"
7,Cc1cccc(C)c1Nc1nc2ccccc2nc1NS(=O)(=O)c1ccccc1,active: 11.2 µM
8,Cc1ccc2nc(Nc3ccc(Cl)cc3)c3nncn3c2c1,"inconclusive: 35.5 µM [inhibitor, single point]"
9,COC(=O)Cn1c(=NC(=O)c2nc3ccccc3s2)sc2cc(S(N)(=O)=O)ccc21,"inconclusive: 35.5 µM [inhibitor, single point]"
10,Cc1ccc(NC(=O)Cc2cn(C)c3ccccc23)cc1F,"inconclusive: 35.5 µM [inhibitor, single point]"
11,c1ccc(COc2cccc(CNCc3cccs3)c2)cc1,"inconclusive: 25.1 µM [inhibitor, single point]"
12,O=[N+]([O-])c1ccc(O)c(/C=N/Nc2ccc(Cl)nn2)c1,"inconclusive: 2 µM [inhibitor, partial curve, poor fit]"
13,CN(C)CCCNC(=O)C(=O)Nc1cc2c3c(c1)CCC(=O)N3CCC2,"inconclusive: 11.2 µM [inhibitor, single point]"
14,Nc1c(C(=O)Nc2ccccc2F)sc2nc(-c3ccco3)ccc12,active: 22.4 µM
15,Clc1ccccc1C(c1ccccc1)(c1ccccc1)n1ccnc1,inactive
16,COc1ccc(OC)c(/C=C/c2nc3ccccc3[nH]c2=O)c1,active: 22.4 µM
17,Cc1c(C(=O)N2CCCCC2CCN2CCCC2=O)oc2c(F)cccc12 (stereo not given),"inconclusive: 2.24 µM [inhibitor, full curve, poor fit]"
18,CC1Oc2ccccc2N(CC(=O)NC2CCCC2)C1=O (stereo not given),"inconclusive: 35.5 µM [inhibitor, single point]"
19,COc1ccc(CNC(=O)c2ccc3c(c2)CCN3S(=O)(=O)c2ccc(C)cc2)cc1,inactive
20,Cc1cc(C)n(-c2nc3ccccc3c(=O)n2OCC#N)n1,"inconclusive: 5.62 µM [inhibitor, single point]"
21,CCCCN(c1nc2ccccc2nc1Cl)S(=O)(=O)c1ccc(C)cc1,"inconclusive: 35.5 µM [inhibitor, single point]"
22,COCCNC(=O)C(c1ccc(F)cc1)N(Cc1ccco1)C(=O)CCC(=O)Nc1ccccn1 (stereo not given),"inconclusive: 3.16 µM [inhibitor, single point]"

# Some values from the results shown.
# Entry of Cc1c(C(=O)N2CCCCC2CCN2CCCC2=O)oc2c(F)cccc12 (stereo not given) under Potency: inconclusive: 2.24 µM [inhibitor, full curve, poor fit]
# Entry of COc1ccc(N2CCCC2)c(NC(=O)c2ccc([N+](=O)[O-])o2)c1 under Potency: inconclusive: 17.8 µM [inhibitor, partial curve, poor fit]

# Continuation.

row,Structure (SMILES),Potency
1,O=C(NC1CCCCCC1)c1ccc2c(c1)sc1nc(-c3ccccc3)cn12,active: 5.01 µM
2,CCN1CCCC1CNC(=O)C(=O)NCc1ccccc1 (stereo not given),"inconclusive: 5.62 µM [inhibitor, single point]"
3,COC(=O)C1=C(C)N(Cc2ccco2)C(=O)/C1=C\c1ccc([N+](=O)[O-])cc1,active: 3.16 µM
4,C[n+]1c(/C=C/c2ccc(O)cc2)ccc2ccccc21,inactive
5,COc1ccc(CNC(=O)CC(c2ccc(OC)c(OC)c2)N2Cc3ccccc3C2=O)cc1 (stereo not given),inactive
6,CCC1CCC(NC(=O)Nc2cccc(OC)c2)CC1 (stereo not given),inactive
7,COc1cc(C)c(NC(=O)C(=S)N2CCCC2)cc1C,"inconclusive: 1.58 µM [inhibitor, partial curve, poor fit]"
8,COc1ccc(-c2nc(S(=O)(=O)c3ccccc3)c(N3CCCC3)o2)cc1,inactive
9,CC(=O)C(Cc1ccccc1)(Cc1ccccc1)C(C)=O,inactive
10,CCOc1ccc(C(C)=O)cc1COc1ccc(-n2cnnn2)cc1,inactive
11,Cc1ccc(NC(=O)c2c(C)nc3sc(C(=O)Nc4ccc(F)cc4)c(N)c3c2-c2ccc(C)o2)c(C)c1,"inconclusive: 20 µM [inhibitor, partial curve, poor fit]"
12,CCN1CCN(S(=O)(=O)c2ccc(C(=O)Nc3sc4c(c3C(N)=O)CCN(CC)C4)cc2)CC1,"inconclusive: 31.6 µM [inhibitor, single point]"
13,Cc1nc(C(=O)N(C)C)nn1-c1ccc([N+](=O)[O-])cc1,inactive
14,CCCCCCCc1c(O)nc(SCCN(C)C)[nH]c1=O,inactive
15,CC12CCC(=O)N1C(C(=O)Nc1nnc(SCc3ccccc3)s1)CS2 (stereo not given),"inconclusive: 5.62 µM [inhibitor, single point]"
16,Cc1ccccc1NCC(=O)N/N=C/c1c(C)c(C(=O)c2ccc(Cl)cc2)n2ccccc12,"inconclusive: 35.5 µM [inhibitor, single point]"
17,O=C(Cn1sc2ccccc2c1=O)Nc1ccc(Br)cc1,"inconclusive: 35.5 µM [inhibitor, single point]"
18,CN(C)CCCNC(=O)/C(=C\c1ccc(-c2cccc([N+](=O)[O-])c2)o1)NC(=O)c1ccccc1,"inconclusive: 25.1 µM [inhibitor, single point]"
19,CC[C@H](C)[C@H]1O[C@]2(CC[C@@H]1C)C[C@@H]1C[C@@H](CC=C(C)[C@@H](O[C@H]3C[C@H](OC)[C@@H](O[C@H]4C[C@H](OC)[C@@H](O)[C@H](C)O4)[C@H](C)O3)[C@@H](C)C=CC=C3CO[C@@H]4[C@H](O)C(C)=C[C@@H](C(=O)O1)[C@]34O)O2,"inconclusive: 5.62 µM [inhibitor, single point]"
20,Cc1ccc(NC(=O)Cn2c(=O)oc3cc(S(=O)(=O)N4CCCCC4)ccc32)c(Cl)c1,"inconclusive: 17.8 µM [inhibitor, partial curve, poor fit]"
21,CCCN1CCc2c(sc(NC(=O)c3ccc(S(=O)(=O)N(C)c4ccccc4)cc3)c2C(=O)NC)C1,"inconclusive: 3.55 µM [inhibitor, full curve, poor fit]"
22,COc1ccccc1NS(=O)(=O)c1ccc(C)c(C(=O)NCC(c2ccco2)N2CCCCC2)c1 (stereo not given),inactive

row,Structure (SMILES),Potency
1,O=C(OCC12CC3CC(CC(C3)C1)C2)c1ccc(NCc2cc(O)ccc2O)cc1,active: 22.4 µM
2,Cc1ccc(S(=O)(=O)c2cc3c(=O)n4ccccc4nc3n(C3CCCC3)c2=N)cc1,"inconclusive: 22.4 µM [inhibitor, partial curve, poor fit]"
3,COc1ccc(-c2nnc(NC(=O)c3ccc([N+](=O)[O-])o3)o2)c(OC)c1,"inconclusive: 11.2 µM [inhibitor, partial curve]"
4,COC(=O)[C@H](CCSC)NC(=O)c1cc2c(cn1)[nH]c1ccccc12,inactive
5,COc1ccc(Cn2c(=O)[nH]c3cc(C(=O)N4CCN(c5ccccc5F)CC4)ccc3c2=O)cc1,"inconclusive: 3.16 µM [inhibitor, single point]"
6,N#Cc1ccc(C(=O)NNC(=O)c2cccc(S(=O)(=O)N3CCOCC3)c2)cc1,"inconclusive: 5.62 µM [inhibitor, single point]"
7,CCCn1c(N)c(N(CCOC)C(=O)c2ccccc2F)c(=O)[nH]c1=O,"inconclusive: 31.6 µM [inhibitor, single point]"
8,COc1ccc(NC(=O)Cc2nnc(SCC(=O)Nc3nccs3)n2C)cc1,"inconclusive: 35.5 µM [inhibitor, single point]"
9,Cc1ccc(-c2nnc(NCc3nc4ccccc4[nH]3)c3ccccc23)cc1S(=O)(=O)N1CCCCC1,"inconclusive: 2.24 µM [inhibitor, partial curve, poor fit]"
10,CCCCc1nn2c(=O)cc(COC(=O)c3ccc(NC(=O)C(CC)CC)cc3)nc2s1,inactive
11,Cc1ccc(/C=C/C(=O)c2ccc(C)cc2)cc1,inactive
12,O=C(c1ccc(Cl)c(S(=O)(=O)N2CCCC2)c1)N1CCN(c2ccccc2)CC1,inactive
13,Cc1cc(/C=N/NC(N)=S)c(C)n1-c1ccc(Br)cc1,"inconclusive: 5.62 µM [inhibitor, single point]"
14,CCSc1ncc(Cl)c(C(=O)Nc2sc3c(c2C(=O)NCc2cccnc2)CCCC3)n1,"inconclusive: 6.31 µM [inhibitor, single point]"
15,Cc1cc2c(c(=O)n1CCN(C)C)C(c1ccncc1)C(C#N)=C(N)O2 (stereo not given),inactive
16,N#Cc1ccc(-c2ccco2)nc1SCC(=O)c1ccc(Cl)cc1,"inconclusive: 15.8 µM [inhibitor, partial curve, poor fit]"
17,CC(=O)C1=C(C)OC(N)=C(C#N)C1c1cc([N+](=O)[O-])ccc1Cl (stereo not given),"inconclusive: 20 µM [inhibitor, partial curve, poor fit]"
18,OCc1ccccc1CNCc1ccccc1,inactive
19,COc1ccc(-c2cn(-c3ccc(C)c(Cl)c3)c(=S)[nH]2)cc1OC,"inconclusive: 6.31 µM [inhibitor, single point]"
20,CCOc1ccccc1Nc1nc(-c2sc(NC(=O)c3cccc(Cl)c3)nc2C)cs1,"inconclusive: 22.4 µM [inhibitor, single point]"
21,CC(C)CN(C(=O)COC(=O)c1ccc([N+](=O)[O-])s1)c1c(N)n(Cc2ccccc2)c(=O)[nH]c1=O,"inconclusive: 3.98 µM [inhibitor, single point]"

# Structures from the list above containing bromine:
row,Structure (SMILES),Potency
17,O=C(Cn1sc2ccccc2c1=O)Nc1ccc(Br)cc1,"inconclusive: 35.5 µM [inhibitor, single point]"
13,Cc1cc(/C=N/NC(N)=S)c(C)n1-c1ccc(Br)cc1,"inconclusive: 5.62 µM [inhibitor, single point]"
